## Primary screen of a compound library

Each number is a percent effect as filed. The controls that fix the scale are not given in the record; negative values are as filed. The compounds are a random part of those screened. A dash means the value is not listed here; it may have been measured.

A: 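Whole-cell assay for inhibitors of Mycobacterium tuberculosis growth, labelled Cornell in the record; the read-out is not stated. The concentration is filed as 10 mM, unlikely as a test dose, so the dose is not known. Higher means stronger inhibition (inferred from two other growth screens of the library). About 53,000 compounds were tested under these conditions; 1.7% (about 900) showed 50% or more at least once.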
B: 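Assay on Mycobacterium tuberculosis, filed only as a heat shock assay from Cornell; the read-out is not stated. The concentration is filed as 10 mM, unlikely as a test dose, so the dose is not known. The record gives no direction; compounds that gave an IC50 in retests scored well above the rest, so higher reads as stronger inhibition. About 69,000 compounds were tested under these conditions; 1.4% (about 930) showed 50% or more at least once.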

Result for CC(C)c1nnc2n1CCN(Cc1cc(Cl)c3c(c1)OCCO3)C2 was A: -1.254%; B: -6.175%. Cc1nn(C)c2c(NCCCn3cccn3)ncnc12 read B: 4.658%. With O=S(=O)(N1CCOCC1)N1CCCC(c2ccccn2)C1 (stereo not drawn) the screen gave A: 6.071%; B: -20.74%. CC(=O)N(Cc1ncc(C(C)C)o1)C1CCN(CC2CCC2)C1 (stereo not drawn) read B: 4.121%.

Fc1ccc(OCCCN2CCCC(Cn3cncn3)C2)cc1 (stereo not drawn) gave A: -44.06%; B: -9.279%. Fc1cnc(N2CCCC3(CCN(Cc4cccs4)C3)C2)nc1.O=C(O)C(F)(F)F.O=C(O)C(F)(F)F (stereo not drawn) read A: -22.28%; B: 6.966%. O=C(C1CCC2(CCN(c3ncccn3)CC2)CO1)N1CCCC1 (stereo not drawn) read A: -8.934%; B: 20.15%. O=C(O)C(F)(F)F.O=C(O)C(F)(F)F.[H][C@@]12CCCO[C@]1([H])[C@@H](N(C)Cc1cncnc1)CN2CC1CC1 gave A: 24.83%; B: -1.827%.

For Cc1noc(C)c1C(=O)N1CCC(Nc2cccnn2)CC1 the result was B: 10.26%. CCOc1ncccc1CNC(=O)Nc1ccc(N(C)C)nc1 read A: 35.46%; B: 10.8%. Result for COCCN1CCC2(CC1)CN(C(=O)Cc1cccnc1)CCO2.O=C(O)C(F)(F)F.O=C(O)C(F)(F)F was A: 26.19%; B: -2.196%. With O=C(NCCSCc1cccs1)C1CCCN(C(=O)N2CCCC2)C1 (stereo not drawn) the screen gave A: 5.989%; B: -3.945%.

With CCCNC(=O)CNc1ccc(C(=O)N2CCCCC2C)cc1C (stereo not drawn) the screen gave A: 5.716%; B: 9.453%. CCCn1nc2c(cc1=O)CN(CCN1CCCC1=O)CC2 read B: 5.529%. For Cc1nc(C)n(C2CCCN(C(=O)c3ccc4c(c3)COC4)C2)n1 (stereo not drawn) the result was A: -1.76%; B: -5.514%. COc1ccccc1N1CCC(CNCc2cccc(O)c2)C1 (stereo not drawn) read A: 38.06%; B: 14.53%.

For O=C(O)C(F)(F)F.[H][C@@]12COC[C@H](C(=O)N3CCOCC3)[C@]1([H])CN(c1ncc(F)cn1)C2 the result was A: -3.759%; B: -5.996%. For CCC(C)NC(=O)c1coc(COc2cccc(F)c2)n1 (stereo not drawn) the result was A: 60.97%; B: -1.92%. For Cn1cccc1C1CCCN1Cc1noc(C(C)(C)C)n1 (stereo not drawn) the result was A: -6.362%; B: -40.09%. Result for Cc1cc(C(=O)N2CCOC(c3nc(C(C)C)n[nH]3)C2)c(C)s1 (stereo not drawn) was A: -44.9%; B: 6.975%.

O=C(N[C@@H]1c2ccccc2C[C@@H]1O)C1CCN(Cc2ccco2)CC1 gave A: -11.16%; B: 21.5%. Result for CC(C)(C)c1ccn(C2(C(=O)O)CCN(c3nccc(N)n3)CC2)n1 was A: 11.16%; B: 16.28%. Result for N[C@H]1CN(S(=O)(=O)N2CCCC2)C[C@@H]1c1ccccc1 was A: 9.47%; B: 10.67%. Cc1ccc2c(c1)C1(CCNCC1)CC2OCC1CC1 (stereo not drawn) read A: 11.1%; B: 13.82%.

O=C(NCc1ccncc1)N(Cc1ccc(F)cc1F)C1CC1 read A: 16.37%; B: -23.78%. For O=C(O)C(F)(F)F.[H][C@]12CCN(C(=O)c3ccc4[nH]ccc4c3)C[C@@]1([H])OCCN(CC1CC1)C2 the result was A: -16.95%; B: -0.3025%. CNC(=O)NC(=O)CCSCc1cc(Cl)cc2cccnc12 read A: -2.587%; B: 4.283%. With CCN(Cc1nc(C(C)C)no1)Cc1cccs1 the screen gave A: 16.42%; B: 21.17%.

For CC(=O)NCCNC(=O)NCc1ccc(-n2ccc(C(F)(F)F)n2)cc1 the result was A: -29.49%; B: -7.305%. CC(C)N(C)Cc1nnc2n1CCN(CC1CC1)CC2.O=C(O)C(F)(F)F.O=C(O)C(F)(F)F gave A: 5.137%; B: -31.82%.

Some entries from above, unchanged:

SMILES	A	B
Cc1noc(C)c1C(=O)N1CCC(Nc2cccnn2)CC1	-	10.26
COc1ccccc1N1CCC(CNCc2cccc(O)c2)C1 (stereo not drawn)	38.06	14.53
O=C(O)C(F)(F)F.O=C(O)C(F)(F)F.[H][C@@]12CCCO[C@]1([H])[C@@H](N(C)Cc1cncnc1)CN2CC1CC1	24.83	-1.827
O=C(O)C(F)(F)F.[H][C@]12CCN(C(=O)c3ccc4[nH]ccc4c3)C[C@@]1([H])OCCN(CC1CC1)C2	-16.95	-0.3025

Data taken from ChEMBL document CHEMBL3988442, “University of Dundee, Small-Polar-MMV Screening Library” (2021).